The results in this text go back to PubChem BioAssay AID901 (National Center for Advancing Translational Sciences (NCATS), 2007).

This is one part of the list. Further columns of the screen follow, without active or inactive calls. Most of these compounds were active or inconclusive in the main read-out, so they are no random draw. The note in brackets gives the kind of curve behind each potency; many fits are weak.

A short description of this assay: qHTS Assay for Identifying the Cell-Membrane Permeable IMPase Inhibitors. Particulars: CHO-M1 cells, IP1 accumulation, HTRF TR-FRET ratio; measured here: donor channel 620 nm AC50.
In the case of `O=S(=O)(NCCOc1ccc(F)cc1)c1ccc2c(c1)OCCO2`, the AC50 was 1.26 µM [rising, full curve, poor fit].
With `COC(=O)c1ccc(S(=O)(=O)NCc2cccc(OC)c2)n1C`, the concentration at half-maximal activity (AC50) is 0.0251 µM [falling, full curve, poor fit].
The result for `CC1CN(C2CCN(C(=O)COc3ccccc3)CC2)CC(C)O1` (stereo not drawn) reads 3.55 µM [rising, single point]; that for `CC(C)(C)CC(=O)OCC(=O)Nc1cc(C(C)(C)C)nn1-c1ccccc1`, 6.31 µM [falling, single point]; that for `COc1ccc2c(c1)-c1c(sn(-c3ccc(OC)c(OC)c3)c1=S)C(C)(C)N2`, 0.0316 µM [falling, full curve, poor fit].
The result for `Clc1ccc(Sc2cc(N3CCOCC3)nc(-c3ccccc3)n2)cc1` reads 3.16 µM [falling, partial curve]; that for `O=C(c1cccc(Br)c1)N1CCN(C(=O)N2CCOCC2)CC1`, 7.94 µM [falling, partial curve].
The result for `CCN1C(=O)CSc2ccc(C(=O)NCc3ccco3)cc21` reads 0.00631 µM [falling, full curve, poor fit].
With `Cc1ccccc1Cn1nc(C)c(NC(=O)c2cc3nc(-c4ccco4)cc(C(F)(F)F)n3n2)c1C`, the AC50 is 0.0501 µM [rising, full curve, poor fit].
For `CCCCCCN1CC(O)=C(c2ccccc2)C1=N` the value was 6.31 µM [falling, single point].
For `O=C1c2ccccc2C(=O)N1CSc1nnc(Nc2ccccc2F)s1` the value was 0.01 µM [rising, full curve, poor fit]; for `CCCOC(=O)c1ccc(Nc2nc(C)cc(=O)[nH]2)cc1`, 12.6 µM [falling, single point].
With `Cc1ccccc1S(=O)(=O)NC1OC(=O)C(Cl)=C1Cl` (stereo not drawn), the AC50 is 5.01 µM [rising, partial curve, poor fit].
The result for `CC1CCCN(C(=O)CSc2cnc3ccccc3n2)C1` (stereo not drawn) reads 20 µM [rising, partial curve]; that for `CCC1CCCCN1C(=O)CSc1nnc(-c2ccco2)o1` (stereo not drawn), 12.6 µM [falling, partial curve, poor fit].
The result for `Cc1ccc(S(=O)(=O)N2CCCC2CO)cc1` (stereo not drawn) reads 0.398 µM [rising, full curve, poor fit].
As for `O=C(NCCN1CCOCC1)c1ccccc1-c1ccccc1`, the AC50 was 12.6 µM [rising, single point].
The result for `O=S(=O)(Nc1cnc2ccccc2c1)N1CCCCCC1` reads 10 µM [falling, partial curve]; that for `Cc1cccc(NC(=O)CSc2nc3ccccc3nc2N2CCCCC2)c1C`, 5.62 µM [falling, single point]; that for `CC(C)COP(=O)(c1ccc(N(C)C)cc1)C(O)c1ccccc1F` (stereo not drawn), 10 µM [falling, partial curve, poor fit].
The result for `Cc1cc2ccccc2c(=O)n1CC(=O)NCC(=O)N1CCN(c2cccc(Cl)c2)CC1` reads 5.01 µM [falling, single point]; that for `COc1ccccc1Cn1c(=O)c2ccccc2n2c(SCC(=O)N3CCCCC3)nnc12`, 35.5 µM [rising, single point]; that for `CC1CCN(C(=O)c2ccc(-n3cnnn3)cc2)CC1`, 31.6 µM [rising, partial curve].
On to `CC(=O)c1cccc(S(=O)(=O)NCC(c2ccco2)N2CCCCC2)c1` (stereo not drawn), for which the AC50 was 0.02 µM [falling, full curve, poor fit].
The result for `COC(c1ccccc1)c1c(-c2ccccc2)nn(C)c1Cl` (stereo not drawn) reads 0.794 µM [falling, full curve, poor fit]; that for `Cc1ccc2cccc(NC(=S)NC(=O)c3ccnn3C)c2n1`, 0.794 µM [falling, full curve]; that for `Clc1ccc(CSc2nnc([C@@H]3CCCN3)o2)cc1`, 0.0251 µM [rising, full curve, poor fit].
For `Cc1ccc(C(=O)O)cc1N1C(=O)c2cccc3cc(Br)cc(c23)C1=O` the value was 3.98 µM [rising, full curve].
For `CCOC(=O)C1(C)C=C(Nc2ccc(OC)cc2)C(=O)N1c1ccccc1` (stereo not drawn) the value was 0.794 µM [falling, full curve, poor fit].
For the compound `Cc1cccc(NC(=S)NCc2cccs2)c1C`, the AC50 is 0.0398 µM [rising, full curve, poor fit].
With `CC1=CC(=O)C=C(C)C1=NOS(=O)(=O)c1ccccc1`, the AC50 is 31.6 µM [falling, single point].
With `CC(C(=O)O)N1C(=O)c2cccc3cccc1c23` (stereo not drawn), the AC50 was 35.5 µM [falling, single point].
In the case of `COc1ccc(OC)c(NC(=O)Cc2c(C(=O)O)[nH]c3ccc(Cl)cc23)c1`, the AC50 is 0.0224 µM [falling, full curve, poor fit].
Turning to `COC(=O)c1ccc2nc(NC(=O)CN3C(=O)CCC3=O)sc2c1`, the AC50 was 0.2 µM [falling, full curve, poor fit].
The result for `Cc1c(Cl)c(-c2n[nH]c(=S)n2-c2ccccc2)nn1C` reads 15.8 µM [rising, single point]; that for `O=C(O)CCc1ccc(-c2ccc(Br)cc2)o1`, 12.6 µM [rising, partial curve].
For `Cc1cccc(C(=O)Nc2oc(-c3ccccc3)cc2C#N)c1`, the AC50 is 25.1 µM [falling, single point].
With `CCOC(=O)c1ccc(NC(=O)CN2C(=O)CCC2=O)cc1`, the AC50 was 0.1 µM [falling, partial curve].
For the compound `COc1cccc(C(=O)c2sc(NC(C)C)nc2N)c1`, the AC50 was 0.398 µM [rising, full curve, poor fit].
For `Cc1ccc(OCCN2CCN(C(=O)CCC(=O)Nc3nnc(C)s3)CC2)cc1`, the AC50 was 0.224 µM [rising, partial curve].
For `Cc1nn(-c2ccccc2)c2[nH]c(=O)c(CNCCN3CCOCC3)cc12`, the AC50 was 0.794 µM [falling, full curve].
`CC1(C)CC(=O)C2=C(C1)N=C1SCCC(=O)N1C2c1ccccc1` (stereo not drawn): the AC50 was 0.158 µM [falling, full curve, poor fit].
For `Cc1ccc(CNC(=O)c2cc3c(=O)n(C)c4ccccc4c3n2C)cc1` the value was 31.6 µM [rising, single point].
